We go through 1 molecule from patent publication US20040176301A1.

These are yes or no findings as the source states them, for the method shown. Some entries that bind do so weakly or less than the wild type. Tags and fused reporters may be left off the sequences shown.

The target of the assay is Cyclin A (UniProt P20248). Briefly: competitive cyclin A binding ELISA. For orientation: In an ELISA, binding on a coated surface is turned into a signal by an enzyme label.

B1: GST-pRb(772-928) (protein, UniProt P06400 772-928, looked up, not shown: a dimerising Fc or GST)
chain: ASTRPPTLSPIPHIPRSPYKFPSSPLRIPGGNIYISPLKSPYKISEGLPTPTKMTPRSRILVSIGESFGTSEKFQKINQMVCNSDRVLKRSAEGSNPPKPLKKLRFDIEGSDEADGSKHLPGESKFQQKLAEMTSTRTRMQKQKMNDSMDTSNKEEK
With B1, the binding entry was “binds”.
